This test deals with Sav1866^3xFLAG, multidrug ABC transporter Sav1866 from Staphylococcus aureus with a 3xFLAG epitope tag (Staphylococcus aureus) (UniProt Q99T13). Nature of the test: native gel or EMSA; BN-PAGE (NativePAGE 3 to 12%) of crude membranes of A. balhimycina strains solubilised with 1% LMNG for 1 h at 4°C, 15 μg of solubilised membrane proteins, immunoblot with anti-FLAG antibody. On the technique in general: Mobility shift assays separate free from complexed probe on a gel.

Results are given in words; binding and its absence hold for the method and conditions named. Some binding calls cover weakened binding; strength is not graded here. Where a sequence is shown, tags or fusion partners need not be part of it.

Data on 1 molecule can be found in PMC11960670.

B1: Sav1866^3xFLAG, multidrug ABC transporter Sav1866 from Staphylococcus aureus with a 3xFLAG epitope tag (protein, UniProt Q99T13 1-578)
chain: MIKRYLQFVKPYKYRIFATIIVGIIKFGIPMLIPLLIKYAIDGVINNHALTTDEKVHHLTIAIGIALFIFVIVRPPIEFIRQYLAQWTSNKILYDIRKKLYNHLQALSARFYANNQVGQVISRVINDVEQTKDFILTGLMNIWLDCITIIIALSIMFFLDVKLTLAALFIFPFYILTVYVFFGRLRKLTRERSQALAEVQGFLHERVQGISVVKSFAIEDNEAKNFDKKNTNFLTRALKHTRWNAYSFAAINTVTDIGPIIVIGVGAYLAISGSITVGTLAAFVGYLELLFGPLRRLVASFTTLTQSFASMDRVFQLIDEDYDIKNGVGAQPIEIKQGRIDIDHVSFQYNDNEAPILKDINLSIEKGETVAFVGMSGGGKSTLINLIPRFYDVTSGQILIDGHNIKDFLTGSLRNQIGLVQQDNILFSDTVKENILLGRPTATDEEVVEAAKMANAHDFIMNLPQGYDTEVGERGVKLSGGQKQRLSIARIFLNNPPILILDEATSALDLESESIIQEALDVLSKDRTTLIVAHRLSTITHADKIVVIENGHIVETGTHRELIAKQGAYEHLYSIQNL
For the molecule B1, the binding result is recorded as “binds”.
